In patent US20240366644A1, “ANTI-INFLAMMATORY APPLICATION OF GINSENOSIDE RD” (priority 2022, published 2024):
At least one structure is not confirmed: it was looked up by name or label, or the drawing left a doubt.

System: mice with acute lung injury
Assay: Inflammatory factors (ELISA) in lung tissue and alveolar lavage fluid of mice with LPS acute lung injury
Assay type: in vivo, Balb/c mice
Settings: compared with the model group
Procedure: Balb/c male mice, weighing 20-22 g, were randomly divided into five groups according to body weights, with eight mice in each group: a blank control group (propylene glycol-0.5% carboxymethylcellulose sodium), a model group (LPS, 15 mg/kg), a ginsenoside Rd low-dose group (10 mg/kg), a ginsenoside Rd high-dose group (20 mg/kg), and a Dexamethasone group (5 mg/kg). Mice in each group were intraperitoneally injected; after 1 h of administration, except for the blank control group, the mice in each group were intratracheally instilled with 20 μg of LPS for modeling; and the blank control group was intratracheally instilled with an equal volume of PBS. […]
In strict accordance with the operating instructions of an enzyme-linked immunosorbent assay kit (ELISA), the contents of TNF-α, IL-1β, IL-6 and IL-18 in the supernatant of mouse lung tissue homogenate and the BLAF supernatant were detected.

Compound: C[C@@H]1C[C@H]2[C@@H]3CCC4=CC(=O)C=C[C@]4(C)[C@@]3(F)[C@@H](O)C[C@]2(C)[C@@]1(O)C(=O)CO [Dexamethasone, reference compound]
- contents of TNF-α, IL-1β, IL-6 and IL-18 in the lung tissues and BLAF: significantly reduce
